# Measured values reported in PubChem BioAssay AID342 (DTP/NCI, 2004).
# The list does not hold the whole screen: it is rich in T/C values a quarter to a half above the control, in often repeated tests (any T/C) and in doses without a T/C. Further doses and runs are listed elsewhere. T/C: endpoint of the treated group in % of that of the vehicle group. Schedule codes are those of the source, read here as Q, the interval in days (D) or hours (H), X, the number of doses. Some T/C values carry the count of animals alive at the toxicity check (mostly the fifth day); without a count, all were alive then. Some entries hold several experiments; the values are given in rising order. Some schedules carry Z or #; the key to these is not given. Some entries give survivors of the animals treated and no T/C: the source files T/C as zero there, which appears to mark a toxic dose or a test without result, not a measured value. Survivors were counted at the toxicity check, usually on the fifth day, unless a day is given; later deaths do not show.
# System: Swiss mice, Sarcoma 180 sc, mean tumor weight T/C
# Assay: NCI In Vivo Anticancer Drug Screen. Data for tumor model Sarcoma 180 (subcutaneous) in Swiss mice
# Conditions: T/C endpoint: mean tumor weight, higher T/C = larger tumour; for T/C: evaluated on day 8
# Outline: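 Tumor-bearing mice, transplantable tumor; readout survival or tumor size; result = T/C, treated vs vehicle control.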
# [1] = dose: 500.0 mg/kg/injection, schedule: Q01DX007 (ip), vehicle: saline
smiles,measurement,setting,value
N=C(c1nsnc1N)N1CCCC1,survivor count,"dose: 375.0 mg/kg/injection, schedule: Q01DX007 (ip), vehicle: saline",0 of 6
COC1C(OC(N)=O)C(O)C(Oc2ccc3c(O)c(NC(=O)c4ccc(O)c(CC=C(C)C)c4)c(=O)oc3c2C)OC1(C)C (stereo not given),T/C,"dose: 100.0 mg/kg/injection, schedule: Q01DX007 (ip), vehicle: saline",130 % of control
same,survivor count,"dose: 300.0 mg/kg/injection, schedule: Q01DX007 (ip), vehicle: saline",3 of 6
C/C=C1\CN(C)[C@H]2Cc3c([nH]c4ccccc34)[C@@H](c3cc4[nH]c5c(c4cc3OC)CCN3C[C@H]4C[C@H](CC)[C@H]3[C@@]5(C(=O)OC)C4)C[C@H]1C2C(=O)OC (stereo not given in full),T/C,"dose: 27.0 mg/kg/injection, schedule: Q01DX007 (ip), vehicle: water","38 [5 of 6 alive], 46, 87, 116 % of control"
same,T/C,"dose: 40.0 mg/kg/injection, schedule: Q01DX007 (ip), vehicle: water","21, 40, 64, 68 % of control [5 of 6 alive]"
same,survivor count,"dose: 90.0 mg/kg/injection, schedule: Q01DX007 (ip), vehicle: water",1 of 6
CN(C)c1nc(N(C)C)nc(N(C)C)n1,survivor count,"dose: 58.7 mg/kg/injection, schedule: Q#A X014 (ip), vehicle: carboxymethylcellulose (CMC)",6 of 10
same,survivor count,"dose: 125.0 mg/kg/injection, schedule: Q#A X014 (ip), vehicle: carboxymethylcellulose (CMC)",3 of 6
same,survivor count,"dose: 180.0 mg/kg/injection, schedule: Q01DX007 (ip), vehicle: carboxymethylcellulose (CMC)",2 of 10
same,survivor count,"dose: 250.0 mg/kg/injection, schedule: Q#A X014 (ip), vehicle: carboxymethylcellulose (CMC)",2 of 6
CC(C)=CCC1=C(O)c2ccccc2C(=O)C1=O,T/C,"dose: 45.0 mg/kg/injection, schedule: Q01DX007 (ip), vehicle: other",125 % of control
same,survivor count,"dose: 300.0 mg/kg/injection, schedule: Q#A X014 (oral), vehicle: other",1 of 6
Cc1ncc([N+](=O)[O-])n1CCCl,survivor count,"dose: 125.0 mg/kg/injection, schedule: Q01DX007 (ip), vehicle: saline",3 of 6
ClCc1c2ccccc2c(CCl)c2ccccc12,survivor count,"dose: 6.0 mg/kg/injection, schedule: Q01DX007 (ip), vehicle: methylcellulose (MC)",1 of 6
same,survivor count,"dose: 13.5 mg/kg/injection, schedule: Q01DX007 (ip), vehicle: saline",3 of 7
Fc1ccc(NC(=S)Nc2cc(Cl)cc(Cl)c2)cc1,survivor count,"dose: 60.0 mg/kg/injection, schedule: Q01DX007 (ip), vehicle: carboxymethylcellulose (CMC)",1 of 6
CCCCCCCCCCOP(N)(=O)OCCCCCCCCCC,survivor count,"dose: 62.5 mg/kg/injection, schedule: Q#A X014 (ip), vehicle: carboxymethylcellulose (CMC)",1 of 6 and 3 of 6
same,survivor count,"dose: 93.75 mg/kg/injection, schedule: Q#A X014 (ip), vehicle: carboxymethylcellulose (CMC)",1 of 6
Cc1n[nH]c(=O)[nH]c1=O,survivor count,"dose: 1125.0 mg/kg/injection, schedule: Q01DX007 (ip), vehicle: other",1 of 6
same,survivor count,"dose: 1687.0 mg/kg/injection, schedule: Q01DX007 (ip), vehicle: other",0 of 6
Nc1nc(N)c2[nH]cnc2n1,T/C,"dose: 12.5 mg/kg/injection, schedule: Q#A X014 (ip), vehicle: carboxymethylcellulose (CMC)",142 % of control
same,T/C,"dose: 50.0 mg/kg/injection, schedule: Q#A X014 (ip), vehicle: carboxymethylcellulose (CMC)",138 % of control
COc1cc(C[C@H]2c3cc(OC)c(OC)cc3CCN2C)c(Oc2cc3c(cc2OC)-c2c(OC)c(OC)cc4c2[C@H](C3)N(C)CC4)cc1OC,survivor count,"dose: 250.0 mg/kg/injection, schedule: Q01DX007 (ip), vehicle: saline",3 of 6
same,survivor count,[1],0 of 6
CNNCc1ccc(C(=O)NC(C)C)cc1,survivor count,"dose: 500.0 mg/kg/injection, schedule: Q01DX007 (ip), vehicle: carboxymethylcellulose (CMC)",0 of 6
same,survivor count,[1],0 of 6
same,survivor count,"dose: 750.0 mg/kg/injection, schedule: Q01DX007 (ip), vehicle: saline",0 of 6
CCOC(=O)CCCc1ccc(N/N=N/c2nc[nH]c2C(N)=O)cc1,survivor count,"dose: 187.0 mg/kg/injection, schedule: Q01DX007 (ip), vehicle: carboxymethylcellulose (CMC)",2 of 6
same,survivor count,"dose: 250.0 mg/kg/injection, schedule: Q01DX007 (ip), vehicle: carboxymethylcellulose (CMC)",0 of 6
O=C1C=CC(=Nc2ccc3c(c2)C(Br)c2ccccc2-3)O1 (stereo not given),survivor count,"dose: 37.5 mg/kg/injection, schedule: Q#A X014 (ip), vehicle: saline",1 of 6
O=C(O)c1cccc2c3c(cc([N+](=O)[O-])c12)CCCC3,T/C,"dose: 0.37 mg/kg/injection, schedule: Q01DX007 (ip), vehicle: carboxymethylcellulose (CMC)",135 % of control
same,T/C,"dose: 0.75 mg/kg/injection, schedule: Q01DX007 (ip), vehicle: carboxymethylcellulose (CMC)",137 % of control
CC[C@H](c1ccc(O)cc1)[C@@H](CC)c1ccc(O)cc1,survivor count,"dose: 500.0 mg/kg/injection, schedule: Q01DX007 (sc), vehicle: steroid suspending solution",0 of 6
O=P(N1CCCC1)(N1CC1)N1CC1,T/C,"dose: 0.85 mg/kg/injection, schedule: Q#A X014 (ip), vehicle: carboxymethylcellulose (CMC)",128 % of control
same,survivor count,"dose: 2.0 mg/kg/injection, schedule: Q#A X014 (ip), vehicle: saline",1 of 6
same,survivor count,"dose: 16.0 mg/kg/injection, schedule: Q01DX007 (ip), vehicle: carboxymethylcellulose (CMC)",3 of 6
C[C@H](N)C(=O)N[C@@H]1[C@H]2C(=C(O)C[C@@H](O)[C@@H]2O)C(=O)O[C@@H]1C,survivor count,"dose: 2000.0 mg/kg/injection, schedule: Q01DX007 (ip), vehicle: carboxymethylcellulose (CMC)",1 of 7
Cc1ccc(NC(C(=O)c2ccccc2)c2ccccc2)cc1 (stereo not given),survivor count,"dose: 336.0 mg/kg/injection, schedule: Q01DX007 (ip), vehicle: saline",0 of 7
same,survivor count,"dose: 504.0 mg/kg/injection, schedule: Q01DX007 (ip), vehicle: saline",1 of 7
Nc1nc(SC2CCCCC2)c2[nH]cnc2n1,survivor count,"dose: 480.0 mg/kg/injection, schedule: Q01DX007 (ip), vehicle: carboxymethylcellulose (CMC)",3 of 6
O=C1NC(=O)C2(CCCc3ccc(N(CCCl)CCCl)cc32)N1 (stereo not given),survivor count,"dose: 185.0 mg/kg/injection, schedule: Q01DX007 (ip), vehicle: saline",4 of 7
same,survivor count,"dose: 188.0 mg/kg/injection, schedule: Q01DX007 (ip), vehicle: other",3 of 6
same,survivor count,"dose: 280.0 mg/kg/injection, schedule: Q01DX007 (ip), vehicle: saline",0 of 7
CN(CC#N)/N=N/c1nc[nH]c1C(N)=O,survivor count,"dose: 300.0 mg/kg/injection, schedule: Q01DX007 (ip), vehicle: carboxymethylcellulose (CMC)",3 of 6
CCN(CC)P(=O)(N1CC1)N1CC1,survivor count,"dose: 3.0 mg/kg/injection, schedule: Q#A X014 (ip), vehicle: methylcellulose (MC)",3 of 6
same,survivor count,"dose: 7.0 mg/kg/injection, schedule: Q01DX007 (ip), vehicle: saline",3 of 6
same,survivor count,"dose: 11.0 mg/kg/injection, schedule: Q01DX007 (ip), vehicle: saline",2 of 6
same,survivor count,"dose: 17.0 mg/kg/injection, schedule: Q01DX007 (ip), vehicle: saline",2 of 6
COc1cc2c3c(c4cc(OC)c(OC)cc4c2cc1OC)CN1CCC[C@H]1C3,survivor count,"dose: 20.0 mg/kg/injection, schedule: Q01DX007 (ip), vehicle: water",2 of 6
NC1(C(=O)OCc2ccccc2)CCCC1,survivor count,"dose: 222.0 mg/kg/injection, schedule: Q01DX007 (ip), vehicle: carboxymethylcellulose (CMC)",3 of 6
COC1=C(N)C(=O)c2nc(-c3nc(C(=O)O)c(C)c(-c4ccc(OC)c(OC)c4O)c3N)ccc2C1=O,survivor count,"dose: 0.4 mg/kg/injection, schedule: Q#A X014 (ip), vehicle: alkali diluted with CMC",3 of 6
CC(O)C(NCNC(=O)C1=C(O)C2(O)C(=O)C3=C(O)c4c(O)cccc4C(C)(O)C3CC2C(N(C)C)C1=O)C(=O)O (stereo not given),survivor count,"dose: 375.0 mg/kg/injection, schedule: Q#A X014 (ip), vehicle: saline",1 of 7
C[C@@H]1C[C@@H]([C@H](O)CC2CC(=O)NC(=O)C2)C(=O)[C@@H](C)C1,survivor count,"dose: 25.0 mg/kg/injection, schedule: Q#A X014 (ip), vehicle: carboxymethylcellulose (CMC)",3 of 6
CC(=O)OCC(=O)[C@@]1(O)CC[C@H]2[C@@H]3C=C(C)C4=CC(=O)CC[C@]4(C)[C@H]3[C@@H](O)C[C@@]21C,survivor count,"dose: 400.0 mg/kg/injection, schedule: Q01DX007 (sc), vehicle: steroid suspending solution",2 of 7
CC(C)=C(Br)CC[C@@H](C)[C@H]1CC[C@@]2(C)C3=C(CC[C@]12C)[C@@]1(C)CC[C@H](O)C(C)(C)[C@@H]1CC3,T/C,"dose: 250.0 mg/kg/injection, schedule: Q01DX007 (sc), vehicle: steroid suspending solution",133 % of control
